Test results taken from paper PMC11678932.
The exact form of at least one protein or probe is not confirmed. Weaker means in comparison with the reference protein, sequence or condition of that experiment. For some of these results: Where a protein sequence is shown, tags need not be part of it.

The chains behind the UniProt entries cited, without tags or fusion partners. Residues count along the entry.
UniProt P02769, 25-607: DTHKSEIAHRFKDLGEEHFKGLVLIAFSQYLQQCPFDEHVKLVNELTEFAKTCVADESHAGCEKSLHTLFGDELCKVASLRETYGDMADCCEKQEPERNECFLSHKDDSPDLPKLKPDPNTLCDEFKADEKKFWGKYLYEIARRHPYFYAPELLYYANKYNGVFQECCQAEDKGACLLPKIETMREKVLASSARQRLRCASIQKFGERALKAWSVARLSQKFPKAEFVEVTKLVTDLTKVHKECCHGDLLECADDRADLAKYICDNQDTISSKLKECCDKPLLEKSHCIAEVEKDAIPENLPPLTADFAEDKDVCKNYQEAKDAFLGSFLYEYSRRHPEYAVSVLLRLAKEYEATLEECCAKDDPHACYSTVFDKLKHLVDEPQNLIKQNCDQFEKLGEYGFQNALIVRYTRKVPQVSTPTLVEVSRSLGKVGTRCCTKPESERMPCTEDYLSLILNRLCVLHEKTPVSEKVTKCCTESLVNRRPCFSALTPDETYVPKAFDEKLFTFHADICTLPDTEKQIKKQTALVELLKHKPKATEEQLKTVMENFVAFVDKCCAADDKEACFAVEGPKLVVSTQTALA
UniProt P07288, 25-261: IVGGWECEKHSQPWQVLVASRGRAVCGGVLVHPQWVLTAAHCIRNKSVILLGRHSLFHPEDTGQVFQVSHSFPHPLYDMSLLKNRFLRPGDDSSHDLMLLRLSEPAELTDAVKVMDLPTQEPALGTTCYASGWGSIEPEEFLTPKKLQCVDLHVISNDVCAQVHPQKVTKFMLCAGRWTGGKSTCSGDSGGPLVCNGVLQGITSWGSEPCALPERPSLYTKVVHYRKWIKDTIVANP

Experiments:
Test in all cases: electrochemical aptasensor (DPV)
Conditions in all cases: 100x concentration over AFP (100 ng/mL), weak signal change; 5'-SH; 3'-methylene blue; Optimized: pH 7, 4 uM aptamer, 40 min aptamer and 30 min AFP incubation; PBS (0.01 M) listed as reagent; temperature not stated for binding; commercial protein; label: 3'-methylene blue; single-stranded DNA
[1] = biological target: bovine serum albumin (BSA) (bovine) (UniProt P02769)
hemoglobin (HGB) = tested on: hemoglobin (HGB)
ovalbumin (OVA) = biological target: T1, ovalbumin (OVA) (UniProt P01012)
T1 sequence (looked up, limits assumed): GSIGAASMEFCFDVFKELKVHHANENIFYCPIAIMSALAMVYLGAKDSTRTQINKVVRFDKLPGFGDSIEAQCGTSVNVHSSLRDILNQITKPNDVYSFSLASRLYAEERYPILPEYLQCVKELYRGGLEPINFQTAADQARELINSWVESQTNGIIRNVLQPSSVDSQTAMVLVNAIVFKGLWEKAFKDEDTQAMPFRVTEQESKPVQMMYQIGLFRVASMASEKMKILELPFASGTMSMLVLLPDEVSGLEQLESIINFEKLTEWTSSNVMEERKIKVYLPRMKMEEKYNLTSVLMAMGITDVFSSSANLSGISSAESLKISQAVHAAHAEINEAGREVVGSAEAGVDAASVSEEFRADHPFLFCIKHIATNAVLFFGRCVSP

[2] = biological target: prostate-specific antigen (PSA) (UniProt P07288)

Measured: binding result

GTGACGCTCCTAACGCTGACTCAGGTGCAGTTCTCGACTCGGTCTTGATGTGGGTCCTGTCCGTCCGAACCAATC [AFP aptamer]
binds more weakly: all assays above
